Data reported in PMC6317983.

Chains of the proteins cited; added tags and fusions are not shown. Lines headed by an entry give the natural chain unless they say otherwise; changes in a name come on top.
UniProt M4IWN3: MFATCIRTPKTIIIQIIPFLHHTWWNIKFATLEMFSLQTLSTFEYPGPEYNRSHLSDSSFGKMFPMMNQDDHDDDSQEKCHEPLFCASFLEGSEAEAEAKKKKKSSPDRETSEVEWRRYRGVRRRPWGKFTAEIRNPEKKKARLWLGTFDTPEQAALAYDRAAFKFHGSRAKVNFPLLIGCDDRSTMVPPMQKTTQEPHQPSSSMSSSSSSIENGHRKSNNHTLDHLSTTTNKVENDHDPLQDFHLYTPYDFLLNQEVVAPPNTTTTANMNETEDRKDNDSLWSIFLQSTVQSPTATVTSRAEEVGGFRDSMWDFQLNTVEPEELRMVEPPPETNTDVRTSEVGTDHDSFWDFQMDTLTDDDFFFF
UniProt A0A5A4N0D4: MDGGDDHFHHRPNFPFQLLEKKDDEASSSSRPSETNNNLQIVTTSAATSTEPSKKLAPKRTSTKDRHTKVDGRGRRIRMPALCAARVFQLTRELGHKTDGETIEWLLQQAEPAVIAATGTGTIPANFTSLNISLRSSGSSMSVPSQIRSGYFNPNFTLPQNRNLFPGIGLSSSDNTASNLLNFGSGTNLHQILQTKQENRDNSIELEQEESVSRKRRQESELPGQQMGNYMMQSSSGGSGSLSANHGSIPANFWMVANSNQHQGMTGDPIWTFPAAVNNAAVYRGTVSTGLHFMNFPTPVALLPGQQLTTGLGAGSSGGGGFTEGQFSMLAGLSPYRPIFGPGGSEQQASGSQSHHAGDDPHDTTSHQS

Tests used:
[1] = biological target: BD-AaTCP14 (Artemisia annua); assay: two-hybrid; directed Y2H, pGADT7 and pGKBT7 fusions cotransformed into yeast AH109; growth on TDO and/or QDO, 4 days at 30°C
[2] = biological target: BD-AaTCP14 (Artemisia annua); assay: two-hybrid; Y3H: pBridge-AaTCP14 (BD) with or without AaJAZ8 under the MET25 promoter, pGADT7-AaORA, yeast AH109; growth on SD/-T/-L/-H/-A/-M and β-gal activity
[3] = biological target: AaJAZ8 (yeast two-hybrid fusion) (Artemisia annua); assay: two-hybrid; directed Y2H, pGADT7 and pGKBT7 fusions cotransformed into yeast AH109; growth on TDO and/or QDO, 4 days at 30°C
[4] = biological target: GST-AaORA (Artemisia annua) (UniProt M4IWN3); assay: pull-down; purified GST-AaORA and His-AaTCP14 mixed with glutathione-agarose 4B beads, 10 hours at 4°C, 40 mM Hepes-KOH pH 7.5, 10 mM KCl, 3 mM MgCl2, 0.4 M sucrose, 1 mM EDTA, 1 mM DTT, 0.2% Triton X-100; anti-His blot; both purified

AaJAZ8 (yeast two-hybrid fusion) (from UniProt A0A1S5T3I8)
binding [1]: binds

AD-AaORA (from UniProt M4IWN3)
binding [2]: binds | binding [3]: binds | binding [1]: binds

AaMYC2 (from UniProt A0A0H4ITZ2)
binding [3]: binds

His-AaTCP14 (from UniProt A0A5A4N0D4)
binding [4]: binds

Results are given in words; binding and its absence hold for the method and conditions named. Binding calls can cover weak binding; strength is not graded here.
